Data as given in patent US9914698B2, “Stearoyl amino acid salt and preparation method and application thereof” (Shanghai Jiaotong University School of Medicine, priority 2014, dated 2018).
Some entries share one result that the patent states for a list of compounds. At least one compound was matched to its structure with a doubt left.

Experiment: Stability assessment (influencing factors, acceleration and long-term tests, Chinese Pharmacopoeia 2010)
Type: physicochemical
Settings: high temperature, high humidity, strong light
Description: Considering that prototype drug stearoyl amino acid tend to absorb moisture, cake and become yellowish during long-term storage, the stearoyl amino acid is now converted into a form of active salt thereof. And the stability of NsTyr-2K and NsTyr-2Na was tested as required for bulk pharmaceutical chemicals according to the People's Republic of China Pharmacopoeia 2010.

Compound	difference in items involved (appearance, weight gain, melting point and purity)
CCCCCCCCCCCCCCCCCC(=O)N[C@@H](Cc1ccc(O)cc1)C(=O)[O-].[K+] [NsTyr-2K, N-stearoyl tyrosine potassium salt]	less than 5%
CCCCCCCCCCCCCCCCCC(=O)N[C@@H](Cc1ccc(O)cc1)C(=O)[O-].CCCCCCCCCCCCCCCCCC(=O)N[C@@H](Cc1ccc(O)cc1)C(=O)[O-].[Na+].[Na+] [NsTyr-2Na]	less than 5%
